In patent publication US20260028418A1 (GC CELL, published 2026):
These are yes or no findings as the source states them, for the method shown. Some entries that bind do so weakly or less than the wild type.

Experiments:
HER2-ECD DI Fc [1] = target: T1, HER2-ECD DI Fc (human, UniProt P04626 23-217, limits assumed); test: ELISA on plate-coated HER2 domain-Fc fusion (1 µg/mL), anti-human IgG-HRP, Abs 450 nm; antibody concentration not given
T1 construct: domain: domain 1; also called domain 1 of the extracellular domains of the HER2 protein; not shown: Hinge and Fc region (CH2-CH3) of human IgG1, at the C-terminus
Procedure: The HER2-ECD DI Fc, HER2-ECD DII Fc, HER2-ECD DIII Fc, HER2-ECD DIV Fc and HER2-ECD Fc fusion proteins were immobilized at 4° C. overnight onto a Costar 96-well plate (Corning, Cat. No. 3590) at a concentration of 1 μg/mL […]. The resultant was washed 3 times with TBS-T (0.05% Triton X-100) and then blocked at room temperature for 1 hour with 100 μL of TBS-T/BSA (5% BSA). After washing the blocked plate 3 times and adding the anti-HER2 antibody, the antibody was allowed to bind at room temperature for 1 hour. After washing 3 times and then adding anti-human IgG-HRP diluted to 1:3,000 in TBS-T/BSA, as a secondary antibody, the antibody was allowed to bind at room temperature for 1 hour. After washing the resultant 3 times and adding TMB (SurModics, Cat. No. TMBC-1000-01), the mixture was allowed to develop color at room temperature for 5 minutes. Then, the color development was stopped by adding 1 N sulfuric acid (DukSan, Cat. No. 254). Absorbance was measured at 450 nm using Victor X3 (PerkinElmer, Cat. No. 2030-0030).

HER2-ECD DI Fc [2] = target: T1, HER2-ECD DI Fc; test: ELISA on immobilized HER2-ECD domain Fc fusion proteins
HER2-ECD DIV Fc (human) [3] = target: HER2-ECD DIV Fc (human) (UniProt P04626); test: as above
HER2-ECD DIV Fc (human) [4] = target: HER2-ECD DIV Fc (human) (UniProt P04626); test: ELISA on plate-coated HER2 domain-Fc fusion (1 µg/mL), anti-human IgG-HRP, Abs 450 nm; antibody concentration not given

binding (HER2-ECD DI Fc [1]) | binding (HER2-ECD DI Fc [2]) | binding (HER2-ECD DIV Fc (human) [3]) | binding (HER2-ECD DIV Fc (human) [4]) | Binder
binds | binds |  |  | hz39D2 (antibody, V domains shown, Humanized antibody, captured as IgG by anti-human IgG in SPR; also called humanized 39D2 antibody) VH: QVQLVQSGSELKKPGASVKVSCKASGYTFTNYGVNWVRQAPGQGLEWMGWINTHTGEPTYAEEFKGRFVFSLDTSVSTAYLQISSLKAEDTAVYYCARDDYYVRVDYWGQGTTVTVSS VL: DIQMTQSPSSLSASVGDRVTITCKASQDINSYLSWFQQKPGKAPKTLIYRANRLVDGVPSRFSGSGSGQDYTLTISSLQPEDFATYYCLQYDEFPWTFGQGTKVEIK
 |  | binds | binds | 1G3 (antibody, V domains shown) VH: EVQLQQSGAELVKPGASVKLSCTASDFNIVDTYMHWVKQRPEQGLEWIGRIDPANGYTRYDPNFQGKATITADTSSNTAYLQLSSLTSEDTAVYYCARYYYGFYAMDYWGQGTTVTVSS VL: DIVMTQSHKFMSTSVGDRVSITCKASQDVSTAVAWYQQKPGQSPKLLIYSASYRYTGVPDRFTGSGSGTDFTFTISSVQAEDLAVYYCQQHYSTPPTFGGGTKLELK
 |  | binds | binds | hz8G11 (antibody, V domains shown, Humanized antibody, detected with anti-human IgG-HRP; also called humanized 8G11 antibody) VH: QVQLVQSGQEVKKPGASVKVSCKASGYSFTGYYMHWVRQAPGQGLEWIGHINPNNGGTSYNQKFKGRTTLTVDKSISTAYMELSRLRSDDTAVYYCAREEAFAYWGQGTLVTVSS VL: DIQMTQSPSSLSASVGDRVTISCRASQDISNYLNWYQQKPGKAPKLLIYYTSRLHSGVPSRFSGSGSGTDFSLTISSLQPEDIATYYCQQGITPPWTFGGGTKVEIK
binds | binds |  |  | hz2G10 (antibody, V domains shown, Humanized antibody, detected with anti-human IgG-HRP; Only the variable domains are tied to the name; also called humanized 2G10 antibody) VH: EVQLVESGGGLVQPGGSLRLSCAASGFTFSDYYMYWVRQAPGKGLEWVAYINSGGGSTYYPDTVKGRFTISRDNAKNSLYLQMNSLRAEDTAVYYCAREALYDYDYAMDYWGQGTTVTVSS VL: DIVMTQSPLSLSVTPGQPASISCKSSQSLLYSNGKTYLNWLLQKPGQSPQRLIYLVSKLDSGVPDRFSGSGSGTDFTLKISRVEAEDVGVYYCVQGTHFPLTFGGGTKVEIK
